Data from PubChem BioAssay AID485314 (National Center for Advancing Translational Sciences (NCATS), 2010).
Several values for one entry are separate records, joined by “and”; a condition that tells them apart may be missing. Equal entries are not always repeated. Among all 340,000 compounds or so, about 4,500 (1.3%) were called active. Inconclusive means that the source gave no clear call. Such entries were picked first, then a sample of the others. Calls follow the shape of the dose curve; as a rule, active = well fitted inhibition curve with a large enough effect; inconclusive = small, poorly fitted or top-dose-only effect, or another doubt; inactive = no such curve, though single readings can be large or run the other way. Where the call is inconclusive, the potency comes from a doubtful curve fit.
% is scaled to controls: 0 for no effect and ±100 for the full control effect; potency is read from the fitted curve at half-maximal effect.

Each molecule was assayed against DNA polymerase beta (Homo sapiens) (UniProt P06746) (assay: qHTS Assay for Inhibitors of DNA Polymerase Beta). Details: Pol beta primer extension/strand displacement, fluorescence kinetic; activity change, negative = inhibition: at 114 µM (top of the series).
Outline: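 Enzyme-only controls used 10 nM Pol beta; buffer lacking enzyme served as negative control. Compound preincubated 15 min, then 50 nM substrate added; 0 and 10 min reads at room temperature.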
`COc1ccc(C)cc1NS(=O)(=O)c1c(C(=O)N2CCCCCC2)c(C)n(C)c1C` was tested, and the Potency was “inactive”.
With `COc1ccc(Cn2cc(C(=O)c3ccc(C)c(C)c3)c(=O)c3ccccc32)cc1` the Potency was inconclusive: 7.08 µM [inhibitor, full curve, poor fit].
For `COc1cc2ncc(C(=O)c3ccc(C)cc3)c(N3CCCCC3)c2cc1OC`, the Potency was “inactive”.
`COc1cccc(CC(=O)N2CCCC(CCC(=O)N3CCN(c4ccccn4)CC3)C2)c1` (stereo unspecified) was tested, and the Potency was inconclusive: 28.2 µM [inhibitor, partial curve, poor fit].
For `Cc1ccc2nc(NC(=O)c3ccc(N4C(=O)CCC4=O)cc3)sc2c1`, the Potency was “inactive”.
`Cc1ccc(OCC(=O)N/N=C\c2cccn2C)c([N+](=O)[O-])c1` was tested, and the Potency was inconclusive: 12.6 µM [inhibitor, single point].
`O=[N+]([O-])c1cccnc1Oc1ccccc1F` was tested, and the Potency was “inactive”.
For `CCn1c(COc2cccc(C)c2)nnc1SCC(=O)Nc1cccc(C(=O)O)c1`, the Potency was inconclusive: 89.1 µM [inhibitor, single point].
With `CC1CCN(c2nc3ccc(C(=O)NCc4ccccc4Cl)cc3s2)CC1` the Potency was inconclusive: 89.1 µM [inhibitor, single point].
For `CC(=O)C1=C(C)OC(N)=C(C#N)C1c1ccncc1` (stereo unspecified), the Potency was “inactive”.
`COc1ccc(C2=C(N3CCN(c4cccc(C)c4)C(C)C3)c3ccccc3C2=O)cc1` (stereo unspecified) was tested, and the Potency was “inactive”.
With `CCN(CC(=O)Nc1ccc([N+](=O)[O-])cc1OC)CC(=O)NC(C)(C)C` the Potency was inconclusive: 22.4 µM [inhibitor, single point].
In the case of `CC(C)n1cnc2c(Nc3ccc(C(=O)O)cc3)nc(Cl)nc21`, the Potency was inconclusive: 100 µM [inhibitor, single point].
With `Cc1cc(Cl)cc2c1NC(=O)[C@]21[C@@H]2C(=O)N(Cc3ccccc3)C(=O)[C@@H]2[C@@H]2CCCN21` the Potency was inconclusive: 2.51 µM [inhibitor, full curve, poor fit] and inconclusive: 44.7 µM [inhibitor, partial curve].
For `CCCS(=O)(=O)N1CCN(Cc2ccccc2OCC)CC1`, the Potency was active: 89.1 µM.
`Cc1ccc(CNC(=O)c2c[nH]n3c(=O)c(Cc4ccc(Cl)cc4)c(C)nc23)cc1` was tested, and the Potency was inconclusive: 50.1 µM [inhibitor, partial curve].
With `CCCCCCCCCCC[N+](C)(C)CC/C=C1/c2ccccc2Sc2ccc(Cl)cc21` the Potency was inconclusive: 25.1 µM [inhibitor, full curve, poor fit].
For `c1ccc2c(c1)nc(N1CCOCC1)c1nncn12`, the Potency was inconclusive: 0.316 µM [inhibitor, full curve, poor fit].
With `CCOC(=O)c1cnc2c(ccc3ccccc32)c1NCCCN(C)C` the Potency was inconclusive: 89.1 µM [inhibitor, single point].
For `Cc1ccsc1/C=C1/NC(=O)N(Cc2ccc(F)cc2)C1=O`, the Potency was inconclusive: 79.4 µM [inhibitor, single point].
With `O=[N+]([O-])c1ccc(O)c(Nc2ncnc3ccc(Br)cc23)c1` the Potency was inconclusive: 25.1 µM [inhibitor, single point].
In the case of `CC(=O)Oc1ccc2occ(-c3ccccc3)c2c1`, the Potency was active: 56.2 µM.
With `O=[N+]([O-])c1ccc(N=Nc2ccc(O)cc2O)cc1` the Potency was inconclusive: 11.2 µM [inhibitor, full curve, poor fit].
With `Cc1cc2cc(C)c3nnc(SCC(=O)NCc4ccco4)n3c2cc1C` the Potency was inconclusive: 7.94 µM [inhibitor, full curve].
For `COC(=O)c1ccccc1NC(=O)CSc1nc(=O)cc(N)n1-c1ccccc1`, the Potency was inconclusive: 3.16 µM [inhibitor, single point].
`CCS(=O)(=O)c1ccc(O)c(NC(=O)Nc2ccc(C(C)(C)C)cc2)c1` was tested, and the Potency was “inactive”.
In the case of `CC/C(=N\NC(=O)c1ccc(-c2ccccc2)cc1)C12CC3CC(CC(C3)C1)C2`, the Potency was inconclusive: 20 µM [inhibitor, partial curve, poor fit].
`CCn1cc(CN2CCCC(CO)(Cc3cccc(Cl)c3)C2)cn1` (stereo unspecified) was tested, and the Potency was inconclusive: 0.794 µM [inhibitor, full curve].
For `COC(=O)c1cc2oc3ccccc3c2n1CC(=O)Nc1cc(OC)cc(OC)c1`, the Potency was “inactive”.
For `Cc1ccc(-n2nnnc2CNC(=O)c2ccc(F)cc2)cc1C`, the Potency was “inactive”.
For `COc1cc2cc(Oc3ccc4ccc(=O)oc4c3)c(=O)oc2cc1OC(=O)/C=C/c1ccccc1`, the Potency was “inactive”.
`CCOC(=O)c1ccc(NC(=O)C2Cc3ccccc3C(=O)O2)cc1` (stereo unspecified) was tested, and the Potency was “inactive”.
`CCS(=O)(=O)Nc1ccc(C2=NN(S(=O)(=O)CC)C(c3cccs3)C2)cc1` (stereo unspecified) was tested, and the Potency was “inactive”.
For `NC(N)=Nc1nc(-c2ccccc2)c2cc(Cl)ccc2n1`, the Potency was inconclusive: 11.2 µM [inhibitor, partial curve, poor fit].
In the case of `O=[N+]([O-])c1ccc(N=Nc2c(O)[nH]c3ccc(F)cc23)cc1`, the Potency was active: 50.1 µM.
With `Cc1ccc(-c2csc3ncnc(OCC(=O)NC(=O)NCc4ccco4)c23)cc1` the Potency was active: 39.8 µM.
With `Cc1ccc(C2=Nc3ccccc3N(CC(=O)Nc3ccccc3C)C(=O)C2)cc1C` the Potency was “inactive”.
With `O=C(O)c1cccc2c1C(=O)c1ccccc1C2=O` the Potency was “inactive”.
With `O=C(COC(=O)Cc1ccc(F)cc1)NCc1ccco1` the Potency was active: 22.4 µM.
For `COc1ccc2[nH]c(C(=O)N/N=C/c3cc(OC)c(OC)c(OC)c3)cc2c1`, the Potency was active: 8.91 µM.
For `Cn1c2ccccc2c(=O)c2c(=O)n(Cc3ccco3)c(-c3ccc(C(C)(C)C)cc3)nc21`, the activity change, negative = inhibition was inconclusive: -46.4% [inhibitor].
In the case of `CCOc1ccc(CN2CCN(c3ncnc4scc(-c5ccccc5)c34)CC2)cc1`, the Potency was “inactive”.
In the case of `Cc1ccc(C(=O)/C=C/Nc2ccc(S(=O)(=O)Nc3cc(C)nc(C)n3)cc2)cc1`, the Potency was inconclusive: 50.1 µM [inhibitor, partial curve].
For `O=C1/C(=C/c2ccc(Br)cc2)Oc2cc(O)ccc21`, the Potency was active: 14.1 µM.
With `CN1C(=O)c2ccccc2Sc2ccc(NC(=O)Cc3c(F)cccc3Cl)cc21` the Potency was active: 20 µM.
For `O=C1CSc2ccc(C(=O)N3CCN(c4ccccn4)CC3)cc2N1`, the Potency was inconclusive: 39.8 µM [inhibitor, single point].
